Measured values from US20250257099A1 (priority 2022, published 2025).
Not every detail of the peptide structures is certain; ends, links or a residue may be inferred. *: point of attachment. X1 = CC(C)CCC[C@@H](C)[C@H]1CC[C@H]2[C@@H]3CC=C4C[C@@H](OC(=O)CCOCCOCCOCCOCCNC(=O)C*)CC[C@]4(C)[C@H]3CC[C@]12C

Biological target: SARS-CoV-2 S protein (Severe acute respiratory syndrome coronavirus 2, UniProt P0DTC2)
Format: cell-based

Ac-DISQINASVVNIEYEIKKLEEVAKKLEESLIDLQELGSGSGC(X1)-NH2 [D2]
blocking SARS-CoV-2-mediated fusion (comparison): matches the efficacy of D1
